In PubChem BioAssay AID256 (DTP/NCI, 2004):
The list is a part of this screen's results and no random one: it gathers tests that were run many times, whatever their T/C, doses with no T/C, and many T/C values between a quarter and a half above the control. Other doses and runs of a compound stand elsewhere. T/C gives the treated animals as a percentage of the vehicle group. Some doses have a count of surviving animals in place of a T/C: the source files T/C as zero there, which appears to mark a toxic dose or a test without result, not a measured value. Some doses without a T/C left all or most animals alive at the check, yet need not have been tolerated: survival well below the control is almost never listed, so the zero probably covers shortened survival too. Counts of survivors are from the toxicity check (mostly the fifth day) where no day follows; animals may have died later. Schedules are NCI's codes, taken here to give the interval after Q, in days (D) or hours (H), and the number of doses after X. For survival time, the PubChem record calls one and a half times the control and up active, and a quarter to a half above the control has no call in these data; cut-offs in other NCI protocols can differ. Some doses were run more than once; the results are listed from low to high. Brackets with × say how often a value occurs here.

Tested on: CD2F1 mice, L1210 leukemia ip, survival T/C
Assay: NCI In Vivo Anticancer Drug Screen. Data for tumor model L1210 Leukemia (intraperitoneal) in CD2F1 (CDF1) mice
Settings: higher T/C = longer survival
Outline: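 Ratio T/C, where T is the treated-group value and C the vehicle-dosed control value, from mice implanted with a transplantable tumor.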

[1] = T/C endpoint: mean survival time, dose: 400.0 mg/kg/injection, schedule: Q01DX001 (ip), vehicle: saline with Tween-80
[2] = T/C endpoint: mean survival time, dose: 200.0 mg/kg/injection, schedule: Q04DX002 (ip), vehicle: saline with Tween-80
[3] = T/C endpoint: mean survival time, dose: 400.0 mg/kg/injection, schedule: Q04DX002 (ip), vehicle: saline with Tween-80

**Q.** How did the T/C (T/C endpoint: mean survival time, dose: 12.5 mg/kg/injection, schedule: Q01DX009 (ip), vehicle: saline with Tween-80) turn out when `CCCCN(C)CCNc1cc(C)nc(Nc2nc3ccc(Cl)cc3[nH]2)n1` was run?
**A.** Its T/C is 143 % of control.

**Q.** What about the T/C (T/C endpoint: mean survival time, dose: 25.0 mg/kg/injection, schedule: Q01DX009 (ip), vehicle: saline with Tween-80) of the same compound?
**A.** The T/C was 147 % of control.

**Q.** And the T/C (T/C endpoint: mean survival time, dose: 50.0 mg/kg/injection, schedule: Q01DX009 (ip), vehicle: saline with Tween-80)?
**A.** Its T/C is 135 % of control.

**Q.** What about the survivor count (T/C endpoint: mean survival time, dose: 100.0 mg/kg/injection, schedule: Q01DX009 (ip), vehicle: saline with Tween-80) of the same compound?
**A.** Its survivor count is 2 of 6.

**Q.** What about the survivor count (T/C endpoint: mean survival time, dose: 200.0 mg/kg/injection, schedule: Q01DX009 (ip), vehicle: saline with Tween-80) of the same compound?
**A.** The survivor count was 0 of 6.

**Q.** What about the survivor count [1] of the same compound?
**A.** The survivor count was 0 of 6.

**Q.** `O=C(/C=C/c1ccccc1)NC(=S)NCc1ccccc1` was tested. Which T/C [2] did it give?
**A.** Its T/C is 91, 93, 98, 103 % of control.

**Q.** What about the survivor count [2] of the same compound?
**A.** Its survivor count is 6 of 6.

**Q.** What about the T/C [3] of the same compound?
**A.** The T/C was 89, 90, 100 % of control (2×).

**Q.** And the survivor count [3]?
**A.** Its survivor count is 6 of 6.

**Q.** How did the survivor count (T/C endpoint: mean survival time, dose: 25.0 mg/kg/injection, schedule: Q01DX009 (ip), vehicle: Klucel (hydroxypropylcellulose) (HPC)) turn out when `COc1ccc2nc3cc(Cl)ccc3c(NCCNCCNCCNc3c4ccc(Cl)cc4nc4ccc(OC)cc34)c2c1` was run?
**A.** The survivor count was 2 of 6.

**Q.** And the survivor count (T/C endpoint: mean survival time, dose: 100.0 mg/kg/injection, schedule: Q01DX009 (ip), vehicle: Klucel (hydroxypropylcellulose) (HPC))?
**A.** The survivor count was 1 of 6.

**Q.** For `O=S(=O)(O)c1ccccc1N=Nc1c(S(=O)(=O)O)cc2cc(S(=O)(=O)O)c(N=Nc3ccccc3S(=O)(=O)O)c(O)c2c1O`, which survivor count (T/C endpoint: mean survival time, dose: 400.0 mg/kg/injection, schedule: Q04DX003 (ip), vehicle: saline with Tween-80) is on record?
**A.** Its survivor count is 2 of 6.

**Q.** How did the T/C (T/C endpoint: median survival time, dose: 100.0 mg/kg/injection, schedule: Q01DX005 (ip), vehicle: Klucel (hydroxypropylcellulose) (HPC)) turn out when `O=C1[C@@H]2C3C=CC([C@H]4C(=O)N(CO)C(=O)[C@@H]34)[C@@H]2C(=O)N1CO` was run?
**A.** The T/C was 137 % of control.

**Q.** What about the survivor count (T/C endpoint: median survival time, dose: 400.0 mg/kg/injection, schedule: Q01DX005 (ip), vehicle: Klucel (hydroxypropylcellulose) (HPC)) of the same compound?
**A.** The survivor count was 0 of 6.

**Q.** Which results are given for `O=C1C=C/C(=N\N=C2/C=CC(=O)O2)O1`?
**A.** survivor count (T/C endpoint: mean survival time, dose: 100.0 mg/kg/injection, schedule: Q04DX002 (ip), vehicle: saline with Tween-80): 0 of 3; survivor count [2]: 0 of 3

**Q.** How did the survivor count (T/C endpoint: mean survival time, dose: 50.0 mg/kg/injection, schedule: Q01DX001 (ip), vehicle: saline with Tween-80) turn out when `O=C1C=C(O)c2ccccc2C1=O.[Ag]` was run?
**A.** Its survivor count is 0 of 3.

**Q.** What about the survivor count (T/C endpoint: mean survival time, dose: 100.0 mg/kg/injection, schedule: Q01DX001 (ip), vehicle: saline with Tween-80) of the same compound?
**A.** The survivor count was 1 of 3.

**Q.** And the survivor count (T/C endpoint: mean survival time, dose: 200.0 mg/kg/injection, schedule: Q01DX001 (ip), vehicle: saline with Tween-80)?
**A.** Its survivor count is 0 of 3.

**Q.** And the survivor count [1]?
**A.** The survivor count was 0 of 3.

**Q.** With `Cc1ccc2c3nc4ccccc4c-3csc2c1` as the compound, how does the survivor count (T/C endpoint: mean survival time, dose: 100.0 mg/kg/injection, schedule: Q04DX003 (ip), vehicle: acetone) read?
**A.** Its survivor count is 5 of 6.

**Q.** And the survivor count (T/C endpoint: mean survival time, dose: 200.0 mg/kg/injection, schedule: Q04DX003 (ip), vehicle: acetone)?
**A.** The survivor count was 3 of 6.

**Q.** What about the survivor count (T/C endpoint: mean survival time, dose: 400.0 mg/kg/injection, schedule: Q04DX003 (ip), vehicle: acetone) of the same compound?
**A.** Its survivor count is 1 of 6.
